Among the data in publication PMC10449902 are binding values, retold here.

Amino acid sequences for entries named in this document (tags omitted).
UniProt Q9HWE5: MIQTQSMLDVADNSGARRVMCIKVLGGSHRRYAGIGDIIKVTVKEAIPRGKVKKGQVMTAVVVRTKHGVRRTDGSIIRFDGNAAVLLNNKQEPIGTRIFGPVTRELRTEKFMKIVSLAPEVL
UniProt Q02SH2: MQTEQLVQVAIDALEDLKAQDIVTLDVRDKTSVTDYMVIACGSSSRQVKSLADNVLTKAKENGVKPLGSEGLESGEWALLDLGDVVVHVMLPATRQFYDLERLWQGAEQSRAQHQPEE

The assay deals with rplN (Pseudomonas aeruginosa (endogenous in strain PAO1)) (UniProt Q9HWE5). The assay is described as follows: cross-linking; XL-MS: pooled SEC fractions F33–F38 (70S ribosome peak) of ϕKZ-infected PAO1 lysate, cross-linked 1 h at RT with 5 mM DSSO; link FDR 5%.

Results are given in words; binding and its absence hold for the method and conditions named. In cells and extracts the contact can be indirect. Some binding calls cover weakened binding; strength is not graded here.

“ribosome silencing factor rsfS (from UniProt Q02SH2 1-118)”: the binding entry is recorded as “binds”.
